Measured values as given in PMC10777651.
These are yes or no findings as the source states them, for the method shown. In cells and extracts the contact can be indirect. Here binding means that the protein was enriched with, or labelled near, the bait; the list need not be complete. No binding means not detected with the bait. Sequences can lack the tags named with a protein.

By UniProt entry, the sequences of proteins in these tests, tags left out.
UniProt A0A509ADJ6: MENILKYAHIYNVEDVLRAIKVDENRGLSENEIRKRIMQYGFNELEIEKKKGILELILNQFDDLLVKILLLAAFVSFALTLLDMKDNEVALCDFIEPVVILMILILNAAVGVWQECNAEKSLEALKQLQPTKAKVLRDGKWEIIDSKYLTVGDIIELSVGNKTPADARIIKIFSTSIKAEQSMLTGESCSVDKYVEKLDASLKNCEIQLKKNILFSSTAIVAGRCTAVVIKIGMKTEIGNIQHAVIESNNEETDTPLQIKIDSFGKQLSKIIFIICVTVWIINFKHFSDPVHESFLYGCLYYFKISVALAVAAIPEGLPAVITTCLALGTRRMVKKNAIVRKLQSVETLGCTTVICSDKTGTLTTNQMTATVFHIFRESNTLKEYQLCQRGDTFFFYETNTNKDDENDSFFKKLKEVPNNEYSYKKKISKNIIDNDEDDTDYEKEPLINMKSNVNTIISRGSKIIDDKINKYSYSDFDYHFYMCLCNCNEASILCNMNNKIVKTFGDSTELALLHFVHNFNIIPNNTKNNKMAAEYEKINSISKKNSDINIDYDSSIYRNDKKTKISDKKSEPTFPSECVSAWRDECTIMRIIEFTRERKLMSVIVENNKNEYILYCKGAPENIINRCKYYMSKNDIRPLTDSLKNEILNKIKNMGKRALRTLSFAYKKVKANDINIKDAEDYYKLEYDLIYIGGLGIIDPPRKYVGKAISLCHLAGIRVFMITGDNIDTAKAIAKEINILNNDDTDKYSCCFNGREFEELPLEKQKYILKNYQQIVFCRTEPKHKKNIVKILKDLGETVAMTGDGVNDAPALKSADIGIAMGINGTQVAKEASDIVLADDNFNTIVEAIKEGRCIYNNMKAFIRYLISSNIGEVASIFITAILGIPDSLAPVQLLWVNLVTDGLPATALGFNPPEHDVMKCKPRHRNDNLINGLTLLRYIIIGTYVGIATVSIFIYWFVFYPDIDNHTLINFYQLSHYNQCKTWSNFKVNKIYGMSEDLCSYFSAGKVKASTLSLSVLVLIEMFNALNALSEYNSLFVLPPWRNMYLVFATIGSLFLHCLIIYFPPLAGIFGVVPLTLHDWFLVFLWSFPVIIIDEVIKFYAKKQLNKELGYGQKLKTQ
UniProt A0A509AEF7: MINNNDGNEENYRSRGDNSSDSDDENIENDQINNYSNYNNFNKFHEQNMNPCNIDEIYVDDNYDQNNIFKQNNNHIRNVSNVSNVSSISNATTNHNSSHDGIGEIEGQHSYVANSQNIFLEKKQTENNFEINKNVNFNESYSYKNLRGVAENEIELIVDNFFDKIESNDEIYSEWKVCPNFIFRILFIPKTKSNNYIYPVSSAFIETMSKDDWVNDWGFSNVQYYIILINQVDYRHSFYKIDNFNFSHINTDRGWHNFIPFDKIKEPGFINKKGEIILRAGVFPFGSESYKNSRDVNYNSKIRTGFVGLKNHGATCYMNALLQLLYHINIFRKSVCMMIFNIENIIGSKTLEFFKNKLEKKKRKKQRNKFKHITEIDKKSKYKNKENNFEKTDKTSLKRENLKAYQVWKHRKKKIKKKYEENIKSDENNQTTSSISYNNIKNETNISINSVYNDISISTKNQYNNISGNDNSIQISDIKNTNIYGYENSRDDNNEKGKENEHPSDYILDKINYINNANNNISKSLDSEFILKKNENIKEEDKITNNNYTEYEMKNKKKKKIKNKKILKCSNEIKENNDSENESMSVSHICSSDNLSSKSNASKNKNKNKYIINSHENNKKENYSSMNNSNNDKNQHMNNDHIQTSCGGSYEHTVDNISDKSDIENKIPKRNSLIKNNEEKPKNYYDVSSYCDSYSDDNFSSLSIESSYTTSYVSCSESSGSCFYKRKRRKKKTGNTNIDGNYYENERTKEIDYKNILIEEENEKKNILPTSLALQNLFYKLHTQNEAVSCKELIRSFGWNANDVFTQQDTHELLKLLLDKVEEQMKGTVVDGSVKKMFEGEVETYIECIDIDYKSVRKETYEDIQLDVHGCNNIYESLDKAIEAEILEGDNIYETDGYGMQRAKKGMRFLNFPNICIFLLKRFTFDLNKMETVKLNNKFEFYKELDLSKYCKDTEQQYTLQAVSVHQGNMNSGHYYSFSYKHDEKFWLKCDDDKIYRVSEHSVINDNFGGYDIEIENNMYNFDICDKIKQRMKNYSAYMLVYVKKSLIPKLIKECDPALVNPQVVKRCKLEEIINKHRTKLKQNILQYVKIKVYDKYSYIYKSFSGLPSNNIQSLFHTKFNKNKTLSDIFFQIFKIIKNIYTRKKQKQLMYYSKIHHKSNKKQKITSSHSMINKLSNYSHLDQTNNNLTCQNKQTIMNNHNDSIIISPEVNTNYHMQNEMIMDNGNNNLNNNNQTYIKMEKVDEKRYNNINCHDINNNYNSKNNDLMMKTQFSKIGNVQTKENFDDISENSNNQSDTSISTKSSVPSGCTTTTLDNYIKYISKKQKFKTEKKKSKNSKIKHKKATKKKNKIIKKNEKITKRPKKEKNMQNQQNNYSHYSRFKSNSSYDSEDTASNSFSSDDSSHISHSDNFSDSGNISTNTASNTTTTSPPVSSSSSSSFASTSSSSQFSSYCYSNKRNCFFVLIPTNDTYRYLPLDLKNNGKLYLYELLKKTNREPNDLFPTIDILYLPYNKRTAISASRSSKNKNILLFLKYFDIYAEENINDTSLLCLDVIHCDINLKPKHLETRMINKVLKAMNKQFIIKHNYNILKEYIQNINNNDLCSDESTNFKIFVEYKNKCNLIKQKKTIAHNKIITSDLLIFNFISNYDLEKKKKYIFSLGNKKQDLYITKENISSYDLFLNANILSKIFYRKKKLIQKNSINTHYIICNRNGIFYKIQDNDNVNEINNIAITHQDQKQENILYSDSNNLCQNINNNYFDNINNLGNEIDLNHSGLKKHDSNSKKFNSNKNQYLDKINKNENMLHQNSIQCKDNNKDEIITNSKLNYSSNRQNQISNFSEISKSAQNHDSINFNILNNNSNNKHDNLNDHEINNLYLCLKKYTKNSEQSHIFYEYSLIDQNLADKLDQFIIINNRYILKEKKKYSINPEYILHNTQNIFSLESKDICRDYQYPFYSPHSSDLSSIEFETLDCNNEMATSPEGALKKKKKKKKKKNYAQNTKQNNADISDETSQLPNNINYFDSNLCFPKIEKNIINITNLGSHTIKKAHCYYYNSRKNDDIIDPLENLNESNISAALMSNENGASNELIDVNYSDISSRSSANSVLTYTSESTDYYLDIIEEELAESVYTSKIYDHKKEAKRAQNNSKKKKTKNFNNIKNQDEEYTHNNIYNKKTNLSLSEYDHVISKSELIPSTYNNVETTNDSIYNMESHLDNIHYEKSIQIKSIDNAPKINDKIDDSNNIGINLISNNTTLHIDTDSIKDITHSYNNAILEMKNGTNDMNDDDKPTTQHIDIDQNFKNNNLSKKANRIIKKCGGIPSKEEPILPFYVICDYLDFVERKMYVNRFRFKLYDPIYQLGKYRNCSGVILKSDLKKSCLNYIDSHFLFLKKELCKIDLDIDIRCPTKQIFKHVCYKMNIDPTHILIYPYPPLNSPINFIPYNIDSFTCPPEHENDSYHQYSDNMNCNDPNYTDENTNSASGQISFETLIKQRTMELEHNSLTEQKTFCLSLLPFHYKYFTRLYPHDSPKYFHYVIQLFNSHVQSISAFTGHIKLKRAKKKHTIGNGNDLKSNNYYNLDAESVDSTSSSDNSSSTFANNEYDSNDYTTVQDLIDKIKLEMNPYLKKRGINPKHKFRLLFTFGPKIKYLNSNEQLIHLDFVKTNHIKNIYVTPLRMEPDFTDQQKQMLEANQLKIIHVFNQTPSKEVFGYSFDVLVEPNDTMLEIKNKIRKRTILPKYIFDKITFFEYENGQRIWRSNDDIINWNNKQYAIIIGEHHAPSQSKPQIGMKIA
UniProt A0A509B0P7: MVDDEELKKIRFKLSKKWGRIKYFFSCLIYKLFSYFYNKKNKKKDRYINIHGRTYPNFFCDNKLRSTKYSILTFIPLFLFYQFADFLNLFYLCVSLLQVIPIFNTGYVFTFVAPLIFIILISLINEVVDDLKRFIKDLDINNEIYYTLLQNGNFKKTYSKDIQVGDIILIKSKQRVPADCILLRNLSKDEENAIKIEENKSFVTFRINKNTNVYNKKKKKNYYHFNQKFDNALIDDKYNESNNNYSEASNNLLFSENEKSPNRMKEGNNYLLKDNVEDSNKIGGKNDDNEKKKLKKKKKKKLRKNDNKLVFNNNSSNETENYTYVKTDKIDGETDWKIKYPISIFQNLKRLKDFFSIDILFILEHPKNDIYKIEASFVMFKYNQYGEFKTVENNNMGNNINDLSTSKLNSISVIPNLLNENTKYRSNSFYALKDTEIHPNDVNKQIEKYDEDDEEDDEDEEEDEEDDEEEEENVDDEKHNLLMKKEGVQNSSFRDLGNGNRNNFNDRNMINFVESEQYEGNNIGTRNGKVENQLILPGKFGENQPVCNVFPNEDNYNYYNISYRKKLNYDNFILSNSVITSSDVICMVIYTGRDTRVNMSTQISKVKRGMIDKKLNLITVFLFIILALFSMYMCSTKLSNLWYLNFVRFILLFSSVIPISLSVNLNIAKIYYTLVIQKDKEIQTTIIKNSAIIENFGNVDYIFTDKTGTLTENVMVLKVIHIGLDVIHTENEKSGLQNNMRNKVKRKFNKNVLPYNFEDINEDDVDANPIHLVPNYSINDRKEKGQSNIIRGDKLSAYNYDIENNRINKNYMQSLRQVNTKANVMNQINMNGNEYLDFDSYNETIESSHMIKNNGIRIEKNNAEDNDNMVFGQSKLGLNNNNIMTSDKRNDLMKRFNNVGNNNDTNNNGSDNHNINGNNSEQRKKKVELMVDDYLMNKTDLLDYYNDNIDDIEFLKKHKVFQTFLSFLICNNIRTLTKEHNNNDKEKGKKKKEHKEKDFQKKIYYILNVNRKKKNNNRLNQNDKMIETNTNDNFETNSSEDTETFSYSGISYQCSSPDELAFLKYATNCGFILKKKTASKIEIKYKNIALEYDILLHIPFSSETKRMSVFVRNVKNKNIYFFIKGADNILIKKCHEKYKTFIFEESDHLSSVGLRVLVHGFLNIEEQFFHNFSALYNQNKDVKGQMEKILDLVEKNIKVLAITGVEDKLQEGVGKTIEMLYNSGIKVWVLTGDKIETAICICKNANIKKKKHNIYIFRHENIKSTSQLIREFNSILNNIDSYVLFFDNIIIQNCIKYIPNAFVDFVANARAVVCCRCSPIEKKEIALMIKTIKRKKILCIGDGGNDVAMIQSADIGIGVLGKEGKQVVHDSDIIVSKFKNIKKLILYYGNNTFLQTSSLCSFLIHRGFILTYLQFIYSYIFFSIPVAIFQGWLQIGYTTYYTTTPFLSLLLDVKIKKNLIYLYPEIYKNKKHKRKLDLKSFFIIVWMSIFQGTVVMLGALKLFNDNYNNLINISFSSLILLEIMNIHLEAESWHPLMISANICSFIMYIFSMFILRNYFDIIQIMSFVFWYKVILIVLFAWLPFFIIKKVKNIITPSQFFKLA
UniProt A0A509APS9: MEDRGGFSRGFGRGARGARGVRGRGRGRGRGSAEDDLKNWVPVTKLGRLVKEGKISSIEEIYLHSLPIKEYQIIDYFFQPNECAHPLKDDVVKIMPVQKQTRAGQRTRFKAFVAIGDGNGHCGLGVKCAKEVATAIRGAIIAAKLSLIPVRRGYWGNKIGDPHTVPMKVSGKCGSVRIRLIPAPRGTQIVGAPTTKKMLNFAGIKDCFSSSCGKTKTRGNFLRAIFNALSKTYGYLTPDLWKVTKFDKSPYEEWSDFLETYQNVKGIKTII

T1: 1019700::mCherry (PBANKA_1019700, NTF2-like domain-containing protein, fused to mCherry) (Plasmodium berghei ANKA)
T1 sequence: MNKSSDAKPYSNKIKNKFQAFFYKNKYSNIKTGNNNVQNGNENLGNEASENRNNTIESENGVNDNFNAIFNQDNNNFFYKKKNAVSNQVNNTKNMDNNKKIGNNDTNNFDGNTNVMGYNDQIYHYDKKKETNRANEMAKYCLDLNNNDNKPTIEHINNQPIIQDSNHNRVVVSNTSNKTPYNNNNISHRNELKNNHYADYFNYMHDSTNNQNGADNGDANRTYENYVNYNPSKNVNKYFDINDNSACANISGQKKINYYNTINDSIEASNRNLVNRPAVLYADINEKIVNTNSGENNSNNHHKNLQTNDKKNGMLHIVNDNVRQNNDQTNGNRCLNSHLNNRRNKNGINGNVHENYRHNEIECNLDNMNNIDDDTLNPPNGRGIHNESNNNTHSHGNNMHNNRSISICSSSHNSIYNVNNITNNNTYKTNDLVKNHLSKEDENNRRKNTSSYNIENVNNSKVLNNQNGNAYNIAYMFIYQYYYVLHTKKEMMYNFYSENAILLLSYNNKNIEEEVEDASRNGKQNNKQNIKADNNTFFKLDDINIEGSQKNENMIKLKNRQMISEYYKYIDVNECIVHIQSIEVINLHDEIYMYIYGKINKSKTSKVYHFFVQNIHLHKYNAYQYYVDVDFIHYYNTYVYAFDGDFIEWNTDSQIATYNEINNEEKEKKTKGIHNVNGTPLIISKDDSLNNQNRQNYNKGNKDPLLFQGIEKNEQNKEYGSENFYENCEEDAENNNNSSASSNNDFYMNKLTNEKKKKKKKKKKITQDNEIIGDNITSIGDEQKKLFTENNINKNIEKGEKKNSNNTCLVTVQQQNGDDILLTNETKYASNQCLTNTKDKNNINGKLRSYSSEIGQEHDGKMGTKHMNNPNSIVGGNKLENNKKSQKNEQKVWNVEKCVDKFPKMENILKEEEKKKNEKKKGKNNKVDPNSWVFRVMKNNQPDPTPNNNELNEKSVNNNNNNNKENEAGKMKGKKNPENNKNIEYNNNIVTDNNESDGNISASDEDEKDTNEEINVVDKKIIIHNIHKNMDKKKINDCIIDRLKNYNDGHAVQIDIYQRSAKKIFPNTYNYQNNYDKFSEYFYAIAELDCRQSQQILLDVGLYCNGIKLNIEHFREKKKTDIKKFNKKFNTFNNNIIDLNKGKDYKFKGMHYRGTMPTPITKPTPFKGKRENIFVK

B1: PBANKA_0415500, coatomer subunit beta, putative (protein, UniProt A0A509AFQ6 1-999)
chain: MPLNLDIKKKLNSRIGKVKCVDIHENEPWILAALYNGKLIIFDYSNQNTIKNIEVSGYPLRCAKFIEKKQWIICTGDDMIIRVYNYNTFEKIIFFEGHSDYIRYIEVHQTLPYILTCSDDMSIKLYDYENNFEKLCSFENHVHYVMMCKFNPKDTYIFASASLDKTIKIWGVQNNMPVVTKPHFTLTGHIKGVNCIDYSSSGETSYIISGSDDKTIRVWDYHTKQCVHILSGHTQNISCLIYHSNLPIIISSSEDCNVKIWNSSMYKLETTLNYNMDKCWSICAKKTKNDLCIGYDEGLIVIQMGSDKPIYTMFKNKIIYIKNADIFIINLQNINNEDNYNDGDIYKVNKKELGNCDFYPTNVSFHPNGRFVCVSGHQEFNIYTSQVLRNKAYGKSPFFVWGNNGDYAIKDEGNKIVIYKEFTAFHSFQTPYNITELFGGYLLGVKSNNFICFYDWNYYNMIRKIDINVKNVYWNDSGTYVAISTEESVYILSYNTKDETSNKDMKCLEPNDNINMGEENGNIVDENNFELENEINEYIESGIWIYDSFVYVSRNLRLYIYTKKFNDIYVYIDKYLYICGYVYEYDRIFLLDTNYNFYSFHIPIAYLQYQKYIINKDFEFADNLLSTIPEYLHNKLSLFLEKMGYKNKALTICTDLEKKFELALSIGNLQLCIEIIKQIENKEDKATVQNKYKALGDTSLIYNDISMAIHCYKKTNDYSSLLIILSTLGDKIGIEELGKICLKNKKYNIAFICYFLLHKINKCVDILVKSKNYAYASFFSRIYKPSLLPNILLKWKNNLNKTYQISPIELLTPDKNPEYFPDYELAIKCESIFEKTQTLGVTQNYSTLKKLIDINIMDEINEIGYEQVENIFVKQFDIDLEKDVKNFDMINSLSSVQKKETTIKSINEIIDKEYVENKTDSNSSNLKRESFVSENNNTSFSNSHEINQNSNDSYKKNSKKTSNNSDNLANLNNSDENISFEMKNETFNSVNDQIDKESE
B2: PBANKA_1012800, voltage-dependent anion-selective channel protein, putative (protein, UniProt A0A509AQY7 1-289)
chain: MDFPKLLNKPSLDLIKNDFPHSNKFELEHISVSKQPFLKSGFTFSNNTYNIYTNFKNNVYNTKNELKFDNSGISLLDIKYEPNFVKNLNICGKYTKSNEKKEDSFEVYGEYTSENMSIFSSINVRNFFFKYIHVGSHPKCPNFKFGGMVQGDLDYKNLQYSLGGAYTKNYFDKQYIFSFRSLPTNKCLYGTVALNLFFQNKNINDNAVSIELLQNILEKKATINIASIWYLNDKNTAVKTKISNDTKVALSLTHKYNEFMTISLGSQVDITKMSLPDSSKFGIKLYLKS
B3: PBANKA_0823000, ubiquitin-like protein, putative (protein, UniProt A0A509AIS7 1-1384)
chain: MEEENIKIKVKSIDNQECEFCVKKNTTTEELKGMISEKKNVDINDIRLIYQGQCLSNTKTIAEYNIQNDHIIHLVIRKKENVNNSAYEKTNQFKNIDQDNNNNNYASSSTPINDPLQYGFASNINFNNVNNNGNTTDNNNRPFGNTTIPTTNIGGATPLYFTHMRLTRNDNLENDIMSQTNMCSLLNDIMSQVNINPNFIYGAAASAVNSVGSGENFFTANIRPNDANVNINEFRANKEKDANIASSPNVGNKQKDMDKDETEKESENISNEINCNDVEKSGEKGTNNNNNCGNVNSEHNKQKSEKQTNNKLPKEGKNREKKNNSSSSSSSENSSYEYNKNNKESDEDKKKKLKKKLKKKLKKKYMQKIRNKYSSDDKINKYNEKNLKKENINDIYSSSYNSNYESSYSENSDTKERELDDEKKKRHKNKILEKLRKKKEKKKKKKYYYSTNSSSDYDKIYEQNEKKKKKKRNKAKFIFDPNLLYNPNYMRNIYRGMYNPGQYPPYITNFNNGNSLRANTNFNNIFNNNSSVFRNIPYPYINGNDMNRSMFYYDQKCANISENENYVNFKDGMHDEYENIKGFVNKRFYKREELNTNDKKRIINMNKNKNISDANNNSEILFGSNFCNNNVHTGNRSMNDAQNLIKNSNDCFTGGILNGVTPQNSNNTTTTNNNVNSNNRNDYANIIPFSDVEIVRNNLVRTNSRGTLSQGGEELSENNLIDEHMRSIQMASNNIRHLRSTSKLLNDENDFEYKNIELNIPWRIMEQLLVLLEEETGYKRPNLSSYINSYYNTNSIYVFFNLFVHINNIINSIIIQFNHSNFLNNDISMSSFSRISIILSLASVIFSRLSNFFFVFYDNFYCNNYGRSYRYSEPINHEYLRELRNFYYSSNRNNNIRNSNISNFNYDPNNIFDNHRINPNKTNLQQEFEEYYKNYLSGIDINMNNNVLLRKDHKNFKTNNLDDNIFSQDNYITHYRFKNKHKLSNSFMDPKGNKYNNNKFTDLKNHLKTDKDWNTNNPFSTLQNYNKKHNPLLYISKKKKKGNKKNGEPTQKNDKDINKNPSICSSKNSHNNSSNFDNNKNNESEIKKFLEPNVVDSSTQNTKDKGNFMIDIFKNILKNEPEEKITENNINDKNCLKNTEKTNNNFPNTTLACYDNNMDDMYGTSDEEKDQTNNHIHIQSNIIPQKDSTNNPLFSEQNEKLQENNGKPNDEKNNSVDIQKNNQAVVNNLSIPNINFANILNDVQNQLATHKAPEAPQRDKFDGIPDKVKERYVNWTENTQIFSGQMIKICRNKRPLSYVYLGENSLNEDISYNNPLPFLWKKNMSNINASFDLEIPDELVEAFDMHILEYVQKSIKNNEDYKLEKFKYPNLSKCEEFFDEADKN

molecular target: T1, 1019700::mCherry (PBANKA_1019700, NTF2-like domain-containing protein, fused to mCherry) (Plasmodium berghei ANKA); assay: affinity purification with mass spectrometry; IP of 1019700::mCherry with RFP-Trap agarose (anti-mCherry beads) from extracts of schizont- and gametocyte-enriched cultures after 22 h of culturing; nanoLC-MS/MS; control: wild-type P. berghei ANKA; three independent experiments

| binding | Molecule |
| --- | --- |
| binds | PBANKA_0207000, calcium-transporting ATPase, putative (from UniProt A0A509ADJ6 1-1120) |
| binds | PBANKA_0210600, ubiquitin carboxyl-terminal hydrolase, putative (from UniProt A0A509AEF7 1-2788) |
| binds | PBANKA_0519900, conserved Plasmodium protein, unknown function (from UniProt A0A509AGW1 1-1591) |
| binds | PBANKA_1438300, phospholipid-transporting ATPase, putative (from UniProt A0A509B0P7 1-1603) |
| binds | PBANKA_1310800, 40S ribosomal protein S5, putative (from UniProt A0A509APS9 1-271) |
| binds | PBANKA_0802300, HECT-type E3 ubiquitin ligase UT, putative (from UniProt A0A509AGE6 1-3439) |
| binds | PBANKA_1359300, VPS13 domain-containing protein, putative (from UniProt A0A509AQW2 1-5434) |
| binds | PBANKA_0316200, Plasmodium exported protein, unknown function (from UniProt A0A509AHX0 1-1739) |
| binds | B1 |
| binds | B2 |
| binds | B3 |

| Molecule | binding |
| --- | --- |
| GBP2 (G-strand binding protein 2) of P. berghei | no binding |
| NAB2 (nuclear poly(A) binding protein 2) of P. berghei | no binding |
